Results are given in words; binding and its absence hold for the method and conditions named. Binding seen in cells or lysates may run through a third protein. A yes stands for co-enrichment or nearness to the bait. Other partners may have been found.

Drawing on doi:10.1101/2020.02.11.944470, this text covers binding for two molecules.

The experiment has as its target BirA*-Casz1v2 (mouse). The experiment can be described thus: proximity labelling.

B1: Hmgb2 (protein, UniProt P30681 1-210)
chain: MGKGDPNKPRGKMSSYAFFVQTCREEHKKKHPDSSVNFAEFSKKCSERWKTMSAKEKSKFEDLAKSDKARYDREMKNYVPPKGDKKGKKKDPNAPKRPPSAFFLFCSENRPKIKIEHPGLSIGDTAKKLGEMWSEQSAKDKQPYEQKAAKLKEKYEKDIAAYRAKGKSEAGKKGPGRPTGSKKKNEPEDEEEEEEEEEEEDDEEEEEDEE
Turning to B1, the binding result is “binds”.

B2: Hmgb3 (protein, UniProt O54879 1-200)
chain: MAKGDPKKPKGKMSAYAFFVQTCREEHKKKNPEVPVNFAEFSKKCSERWKTMSSKEKSKFDEMAKADKVRYDREMKDYGPAKGGKKKKDPNAPKRPPSGFFLFCSEFRPKIKSTNPGISIGDVAKKLGEMWNNLSDNEKQPYVTKAAKLKEKYEKDVADYKSKGKFDGAKGPAKVARKKVEEEEEEEEEEEEEEEEEEDE
For B2, the binding entry is “binds”.
